Results are given in words; binding and its absence hold for the method and conditions named. Binding seen in cells or lysates may run through a third protein. Binding calls can cover weak binding; strength is not graded here. Tags and fused reporters may be left off the sequences shown.
Biological target: Cyclic GMP-dependent protein kinase (PKG), in H9C2 cells (co-IP)
Test: co-IP; H9C2 cells overexpressing PKG and cCbl, synthetic TAG-23 peptide added to the cells; loss of cCbl from the PKG precipitate as read-out of competition; only the binder purified

- binding: binds
B1: TAG-23 peptide (peptide)
peptide: MGSNRGASQAGMTGYGRPRQIIS

— paper PMC8233271
